A short description of this assay: qHTS Assay for Modulators of Lamin A Splicing. The note with it: HeLa LMNA splicing GFP/RFP minigene ratio, 48 h. The method, boiled down:
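Read-out is the ratio of GFP to DsRed2 object intensity, acquired by 488 nm laser-scanning cytometry on HeLa lamin A-EGFP minigene reporter cells. Compound incubation 48 hrs at 37 °C in Opti-MEM with 2% FBS; DMSO 0.5% final.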

[1] abbreviates: measured here: GFP splicing reporter channel.
The mark [2] stands for this setting: measured here: RFP viability control channel.

Molecules are shown by their SMILES. The list shows a part of the results. Shown are side measurements of this screen, not its main read-out; they come without a call. Most of these compounds were active or inconclusive in the main read-out, so they are no random draw. Potencies come from curve fits of mixed quality, noted in brackets.

These results are taken from PubChem BioAssay AID1487 (National Center for Advancing Translational Sciences (NCATS), 2009).

Broadly, the AC50 is the concentration giving half of the maximal activity seen. As to `Nc1nc2c(Cl)cc(Cl)cc2s1`, under setting [1], the AC50 was 0.00447 µM [rising, full curve, poor fit].

With `Cc1ccc(O)c(C(=O)CC(=O)c2ccccc2Cl)c1`, under setting [2], the AC50 was 12.6 µM [rising, single point].

As to `COc1ccccc1CNc1ncnc2ccc(-c3ccc(N(C)C)cc3)cc12`, the AC50 runs as follows: under setting [1], 22.4 µM [falling, partial curve]; under setting [2], 2.24 µM [falling, partial curve].

In the case of `N#Cc1cccc(NC(=O)NCCc2c[nH]c3ccccc23)c1`, the AC50 was 0.158 µM [falling, full curve, poor fit] under setting [1] and 0.178 µM [falling, full curve, poor fit] under setting [2].

Take `Cc1cc(NC2CCCCC2)nc(NCc2ccccc2)n1`: the AC50 under setting [1] is 14.1 µM [rising, partial curve] and the AC50 under setting [2] is 14.1 µM [rising, partial curve].

Turning to `CCCOC(=O)/C(C(N)=NCc1ccccc1)=C(\O)OCCC`, the AC50 under setting [2] was 14.1 µM [rising, single point].

Take `O=C(NCc1ccc(Cl)cc1)C1CCCN(c2ncnc3onc(-c4ccc(F)cc4)c23)C1` (stereo not drawn): the AC50 under setting [2] was 11.2 µM [rising, single point].

With `COc1cc(/C=C\C(=O)NCc2ccc3[nH]c(C)cc3c2)cc(OC)c1OC`, the AC50 under setting [1] was 35.5 µM [rising, single point] and the AC50 under setting [2] is 20 µM [rising, partial curve].

For the molecule `OC(CCN1CCCCC1)(c1ccccc1)c1ccccc1`, the AC50 under setting [1] was 25.1 µM [falling, single point] and the AC50 under setting [2] was 31.6 µM [falling, single point].

For `Cn1cc([N+](=O)[O-])c(C(=O)Nc2ccc3c(c2)OCCO3)n1`, the AC50 was 28.2 µM [falling, single point] under setting [1] and 35.5 µM [falling, single point] under setting [2].

Consider `COc1ccc(-c2nnc(SCC(=O)NCC3CCCO3)n2C)cc1` (stereo not drawn), for which the AC50 under setting [2] was 0.794 µM [falling, single point].

Consider `COCCNC(=O)CSc1nc(-c2ccccc2)c(-c2ccccc2)o1`, for which the AC50 under setting [2] was 35.5 µM [rising, single point].

As for `Cc1cc(-c2cc(-c3ccc(Cl)cc3)nc(N)c2C#N)co1`, the AC50 under setting [2] was 11.2 µM [falling, partial curve].

Turning to `O=C(NC1CCCC1)c1ccc2c(c1)N(Cc1ccc(F)cc1)C(=O)c1ccccc1S2`, the AC50 under setting [1] is 3.55 µM [rising, partial curve].

In the case of `CC1=C(C(=O)Nc2cccc(C)c2C)C(c2cccs2)NC(=S)N1` (stereo not drawn), the AC50 under setting [2] is 7.94 µM [rising, partial curve].

For `COc1cccc(N2C(=O)CC(N3CCN(CCN=CC4=C(O)CC(C)(C)CC4=O)CC3)C2=O)c1` (stereo not drawn), the AC50 is, setting by setting: under setting [1], 0.00891 µM [rising, full curve, poor fit]; under setting [2], 2.82 µM [rising, partial curve, poor fit].

Regarding `CCC(C)NS(=O)(=O)c1ccc(S(=O)(=O)Nc2cc3c(cc2C(C)=O)OCO3)cc1` (stereo not drawn), the AC50 under setting [1] is 14.1 µM [rising, partial curve] and the AC50 under setting [2] was 22.4 µM [rising, single point].

Consider `CCCN1CCN(C(=S)Nc2ccc([N+](=O)[O-])cc2)CC1`, for which, under setting [2], the AC50 is 12.6 µM [rising, single point].

In the case of `O=C(NCCNc1ccc([N+](=O)[O-])cc1C(F)(F)F)c1ccc(F)cc1`, under setting [2], the AC50 is 22.4 µM [rising, single point].

For the molecule `COc1ccc(F)cc1C(=O)C1CCCN(Cc2ccc(Oc3ncccn3)cc2)C1` (stereo not drawn), the AC50 under setting [2] is 0.00355 µM [falling, full curve, poor fit].

As for `Cc1cccc(-c2noc(CN(C(C)C)S(=O)(=O)c3ccc(F)cc3)n2)c1`, the AC50 under setting [2] was 12.6 µM [rising, partial curve].

As to `N#CC1=C(N)C(C#N)(C#N)[C@H](c2ccoc2)[C@H]2CN(Cc3ccccc3)CC=C12`, the AC50 under setting [2] is 7.94 µM [rising, partial curve].

For `COc1cccc(-c2nc(CS(=O)CC(=O)N3CCN(c4cccc(C(F)(F)F)c4)CC3)c(C)o2)c1` (stereo not drawn), the AC50 is 22.4 µM [falling, partial curve, poor fit] under setting [1] and 0.631 µM [falling, partial curve, poor fit] under setting [2].

Regarding `Cc1ccc(SCC(=O)Nc2ccc3oc(-c4cccc(C)c4)nc3c2)cc1`, the concentration at half-maximal activity (AC50) was 0.00794 µM [falling, full curve] under setting [1] and 0.0251 µM [falling, full curve, poor fit] under setting [2].

As for `O=C(Cn1cnc2c(cnn2-c2ccccc2)c1=O)N1CCCc2ccccc21`, the AC50 is, setting by setting: under setting [1], 12.6 µM [rising, single point]; under setting [2], 20 µM [rising, single point].

`CCNc1ncc2nc(-c3cccs3)c(=O)n(Cc3cccs3)c2n1`: the half-maximal activity concentration (AC50) is 14.1 µM [falling, partial curve] under setting [1] and 25.1 µM [falling, partial curve, poor fit] under setting [2].

`O=C(COc1ccc(Cl)cc1)NC1=NN(c2ccccc2)C(=O)C1`: under setting [2], the AC50 was 11.2 µM [rising, single point].

In the case of `CCCOc1ccc(-c2nnn(CC(=O)c3ccc4c(c3)OCCO4)n2)cc1`, the AC50 under setting [1] is 20 µM [rising, partial curve].

With `CCn1c(=O)cc(SCC(=O)Nc2ccc(C)cn2)c2ccccc21`, the AC50 under setting [2] is 17.8 µM [falling, single point].

As to `Cn1c(=O)c(/C=C/c2ccccc2)nc2ccccc21`, the AC50 under setting [2] was 0.0316 µM [rising, full curve, poor fit].

For `Cc1ccc(-n2c(C)cc(/C=N/NC(=O)c3ccncc3)c2C)c(C)c1`, the AC50 under setting [2] was 11.2 µM [rising, single point].

As to `COCCNC(=O)COC(=O)/C=C/c1c(C)nn(Cc2ccc(Cl)cc2Cl)c1Cl`, the AC50 under setting [2] is 31.6 µM [rising, single point].

With `CN[C@]1(C)[C@H]2CC[C@@H](C2)C1(C)C`, the AC50 under setting [1] was 3.16 µM [falling, single point].

Turning to `CCCCNC(=O)c1sc(=S)n(-c2ccccc2OC)c1N`, the AC50 under setting [1] was 3.16 µM [falling, single point] and the AC50 under setting [2] is 2.82 µM [falling, partial curve].

Take `CC(C)(Oc1ccc([C@@H]2CC2(Cl)Cl)cc1)C(=O)O`: the AC50 was 12.6 µM [falling, single point] under setting [1] and 14.1 µM [falling, single point] under setting [2].

Regarding `CCCCC(=O)Nc1cccc(-c2csc(-c3ccccc3)n2)c1`, the AC50 is 31.6 µM [rising, single point] under setting [1] and 35.5 µM [rising, single point] under setting [2].

Turning to `O=C(NCC1(c2ccccc2)CCCC1)C1(c2ccccc2)CCCC1`, under setting [2], the AC50 was 14.1 µM [rising, single point].

On to `CCN(CC)c1ccc(/C=N/Nc2ccc(C)cc2)c(O)c1`, for which the AC50 is 17.8 µM [rising, single point] under setting [1] and 25.1 µM [rising, single point] under setting [2].

With `CNC(=S)N/N=C/c1cc(C)ccc1C`, the AC50 under setting [1] is 20 µM [falling, single point] and the AC50 under setting [2] was 35.5 µM [falling, single point].

For `COc1ccccc1-c1n[nH]c(=S)n1-c1ccccc1`, the AC50 under setting [2] is 5.62 µM [rising, single point].

As to `Cc1c(C(=O)N/N=C/C(C)C)[nH]c2c([N+](=O)[O-])cccc12`, the AC50 under setting [2] is 20 µM [rising, partial curve].

As for `Cc1cc(Oc2ccc3ccccc3c2)nc(SCC(=O)c2ccccc2)n1`, under setting [2], the AC50 is 35.5 µM [rising, single point].

As for `COc1ccc(OC)c(C2C=C(C34CC5CC(CC(C5)C3)C4)NC(=S)N2)c1` (stereo not drawn), the AC50 under setting [2] was 17.8 µM [rising, single point].

Turning to `COc1ccc(/C=C/c2nc3ccccc3n2Cc2ccccc2OC)cc1`, the AC50 under setting [2] is 35.5 µM [rising, single point].

`COC(=O)CN1C(=O)S/C(=C/c2ccc(N3CCCCC3)o2)C1=O`: the AC50 under setting [1] is 25.1 µM [falling, single point] and the AC50 under setting [2] is 0.0708 µM [falling, single point].

Regarding `Cc1cccc(N2CCN(C(=S)c3ccc([N+](=O)[O-])cc3)CC2)c1`, the AC50 is 35.5 µM [rising, single point] under setting [1] and 31.6 µM [rising, single point] under setting [2].

Consider `CC1Cc2ccccc2N1C(=S)Nc1ccc(S(N)(=O)=O)cc1` (stereo not drawn), for which the AC50 reads like this: under setting [1], 22.4 µM [rising, single point]; under setting [2], 25.1 µM [rising, single point].

`CCOC(=O)c1ccc2c(c1)n(CC)c(/C=C/N(C)c1ccccc1)[n+]2CC`: the AC50 under setting [1] was 3.98 µM [rising, partial curve, poor fit] and the AC50 under setting [2] is 20 µM [rising, single point].

On to `COC(=O)CSC1=C(C#N)C(c2ccc(C)o2)CC(=O)N1` (stereo not drawn), for which, under setting [1], the AC50 is 0.282 µM [falling, partial curve, poor fit].

Take `O=C(N/N=C/c1ccccc1OCc1ccccc1)c1cccnc1`: the AC50 under setting [2] is 12.6 µM [rising, single point].

As for `C=CCNc1ncnc2ccc(Br)cc12`, the AC50 under setting [2] was 11.2 µM [rising, partial curve].

`O=C(Nc1ccc(S(=O)(=O)NCCc2ccccc2)cc1)c1ccco1`: under setting [2], the AC50 was 31.6 µM [rising, single point].

On to `Cc1ccc(C(=O)CC2(O)C(=O)N(Cc3ccccc3Cl)c3ccccc32)o1` (stereo not drawn), for which, under setting [2], the AC50 was 20 µM [rising, single point].

Regarding `CN1CCN(C(=S)Nc2cccc(C(F)(F)F)c2)CC1`, the AC50 under setting [2] was 10 µM [rising, single point].

As to `C=C(C)COc1ccc(-c2[nH]ncc2Oc2ccccc2OC)c(O)c1`, the concentration at half-maximal activity (AC50) reads like this: under setting [1], 10 µM [rising, partial curve, poor fit]; under setting [2], 8.91 µM [rising, partial curve, poor fit].

As for `O=C(Nc1ccccc1Cl)c1cc(S(=O)(=O)N2CCCC(C(=O)O)C2)ccc1F` (stereo not drawn), the AC50 under setting [1] was 35.5 µM [rising, single point].
